Values from PubChem BioAssay AID504791 (Drosophila RNAi Screening Center, 2011)
The deposit covers about 23,000 reagents; this is an unselected part of those with a known target gene and a result. In the full data, 199 (0.86%) are marked active. 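Plate-scaled ratios behind the calls are not deposited; printed light signals are raw; many rows marked increased or decreased are still called inactive.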 The numbers tell different reagents against one gene apart. Names joined by + are all predicted targets of the reagent. Not stated in the record: the direction of the score.

Purpose: 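Genes of the fly required for silencing by miRNA, siRNA or endo-siRNA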 (primary screen)
Cells: Drosophila S2-derived reporter cells
Reagent: long dsRNA against Drosophila genes, about 150-250 ng dsRNA per well (siRNA assay); about 80-120 ng (miRNA assay)
Duration: about 5 days (siRNA assay); about 4 days (miRNA assay)
Treatment: copper sulfate induction of reporters: 25 µM (siRNA assay); 200 mM stated (miRNA assay), 1-2 days before reading
Measured: 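Per-well ratio of Renilla over firefly light, expressed relative to that plate's average ratio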
Units: stable assay Renilla, run 1 in luminescence; stable assay firefly, run 1 in luminescence
Rule for the call: 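First-pass picks had plate-scaled ratios over 1.5 for the siRNA assay, over 1.6 for the miRNA assay, or under 0.6; two distinct dsRNAs had to score alike on retest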

gny: stable assay Renilla, run 1 = 20075; stable assay firefly, run 1 = 1.18e6; outcome = inactive
CG33342: stable assay Renilla, run 1 = 6072; stable assay firefly, run 1 = 4.02e5; outcome = inactive
Dhc64C: stable assay Renilla, run 1 = 8552; stable assay firefly, run 1 = 3.72e5; outcome = inactive
AstA: stable assay Renilla, run 1 = 7548; stable assay firefly, run 1 = 3.30e5; outcome = inactive
CG8997: stable assay Renilla, run 1 = 7035; stable assay firefly, run 1 = 3.82e5; outcome = inactive
CG34273: stable assay Renilla, run 1 = 4431; stable assay firefly, run 1 = 3.01e5; outcome = inactive
Jwa: stable assay Renilla, run 1 = 8051; stable assay firefly, run 1 = 1.13e6; outcome = inactive
CG17687: stable assay Renilla, run 1 = 4867; stable assay firefly, run 1 = 2.55e5; outcome = inactive
Srg2 + CG42826 #1: stable assay Renilla, run 1 = 8221; stable assay firefly, run 1 = 5.41e5; outcome = inactive
Srg2 + CG42826 #2: stable assay Renilla, run 1 = 6042; stable assay firefly, run 1 = 3.65e5; outcome = inactive
santa-maria #1: stable assay Renilla, run 1 = 5039; stable assay firefly, run 1 = 3.54e5; outcome = inactive
santa-maria #2: stable assay Renilla, run 1 = 41272; stable assay firefly, run 1 = 1.37e5; outcome = inactive
iotaTry: stable assay Renilla, run 1 = 5683; stable assay firefly, run 1 = 2.93e5; outcome = inactive
CG14488: stable assay Renilla, run 1 = 7827; stable assay firefly, run 1 = 4.50e5; outcome = inactive
CG2736: stable assay Renilla, run 1 = 20266; stable assay firefly, run 1 = 1.64e6; outcome = inactive
B-H2 #1: stable assay Renilla, run 1 = 4432; stable assay firefly, run 1 = 2.91e5; outcome = inactive
B-H2 #2: stable assay Renilla, run 1 = 4556; stable assay firefly, run 1 = 3.53e5; outcome = inactive
CG34299: stable assay Renilla, run 1 = 6678; stable assay firefly, run 1 = 4.07e5; outcome = inactive
CG15365 #1: stable siRNA reporter change = reporter ratio raised past the hit cutoff; stable assay Renilla, run 1 = 4787; stable assay firefly, run 1 = 1.70e5; outcome = inactive
CG15365 #2: miRNA reporter change = reporter ratio raised past the hit cutoff; stable assay Renilla, run 1 = 3340; stable assay firefly, run 1 = 2.83e5; outcome = inactive

In a second layout: results already given
gene	dsRNA no.	stable siRNA reporter change	miRNA reporter change	stable assay Renilla, run 1	stable assay firefly, run 1	outcome
CG17687	1			4867	2.55e5	inactive
Srg2 + CG42826	1			8221	5.41e5	inactive
